# According to patent US11020333B2, “Organic compounds” (Givaudan SA, priority 2016, dated 2021):
# Assay: Odor description (olfactory evaluation of the compound)
# Conditions: both enantiomers possess very similar odor profiles
row,SMILES,odor strength of the enantiomers relative to each other
1,"CC(C)Cc1ccc2c(c1)C(=O)[C@@H](C)C2 [(S)-6-isobutyl-2-methyl-2,3-dihydro-1H-inden-1-one]","more powerful than (R)-6-isobutyl-2-methyl-2,3-dihydro-1H-inden-1-one"

# Same assay, conditions: odor of the isomeric mixture unless otherwise indicated
row,SMILES,Odor description
1,"CC1Cc2ccc(C(C)(C)C)cc2C1=O (centres unmarked) [Example 5, 6-(tert-butyl)-2-methyl-2,3-dihydro-1H-inden-1-one]","green fatty, lactonic fruity, slightly fatty cinnamic"
2,"CCCc1cccc2c1C(=O)C(C)C2 (centres unmarked) [2-methyl-7-propyl-2,3-dihydro-1H-inden-1-one, reference compound]","floral, rose, metallic"
3,"CC(C)Cc1ccc2c(c1)C(=O)C1(C)CC21 (centres unmarked) [Example 21, 4-isobutyl-6a-methyl-1a,6a-dihydrocyclopropa[a]inden-6(1H)-one]","fatty, fruity, green, floral, with some rubbery facets"
4,"CCCOc1ccc2c(c1)C(=O)C(C)C2 (centres unmarked) [Example 19, 2-methyl-6-propoxy-2,3-dihydro-1H-inden-1-one]","waxy, fatty fruity, green floral"
5,"CC(C)Cc1ccc2c(c1)CC(C)C2=O (centres unmarked) [Comparison Example 1, 5-isobutyl-2-methyl-2,3-dihydro-1H-inden-1-one, reference compound]","fruity fatty citrus green, fruity citral green, soapy"
6,"CCCc1cccc2c1CC(C)C2=O (centres unmarked) [Comparison Example 3, 2-methyl-4-propyl-2,3-dihydro-1H-inden-1-one, reference compound]","very weak, fruity, floral"
7,"CC(C)Cc1ccc2c(c1)C(=O)CC2 [Example 3, 6-isobutyl-2,3-dihydro-1H-inden-1-one]","green floral, isobutyl benzoate"
8,"CC1Cc2ccc(C3CCCC3)cc2C1=O (centres unmarked) [Example 12, 6-cyclopentyl-2-methyl-2,3-dihydro-1H-inden-1-one]","fruity fatty floral, peachy, green rosy"
9,"CCCc1ccc2c(c1)C(=O)CC2C (centres unmarked) [Example 2, 3-methyl-6-propyl-2,3-dihydro-1H-inden-1-one]","green, floral, minty, jasmone, jasmine, camonal"
10,"CC1Cc2ccc(C3CC3)cc2C1=O (centres unmarked) [Example 11, 6-cyclopropyl-2-methyl-2,3-dihydro-1H-inden-1-one]","green, fatty, floral, rosy metallic"
11,"CC1Cc2cccc(C3CC3)c2C1=O (centres unmarked) [7-cyclopropyl-2-methyl-2,3-dihydro-1H-inden-1-one, reference compound]","green, floral, leathery"
12,"CC(C)COc1ccc2c(c1)C(=O)C(C)C2 (centres unmarked) [Example 20, 6-isobutoxy-2-methyl-2,3-dihydro-1H-inden-1-one]","floral fruity fatty, green anisic"
13,"CC(C)Cc1ccc2c(c1)C(=O)CC2C (centres unmarked) [Example 8, 6-isobutyl-3-methyl-2,3-dihydro-1H-inden-1-one]","green rosy, fatty, metallic rosy, fatty fruity floral"
14,"CCC1Cc2ccc(CC(C)C)cc2C1=O (centres unmarked) [Example 13, 2-ethyl-6-isobutyl-2,3-dihydro-1H-inden-1-one]","floral fatty green, oily cinnamic, nectaryl"
15,"CCC(C)c1ccc2c(c1)C(=O)C(C)C2 (centres unmarked) [Example 15, 6-(SEC-BUTYL)-2-METHYL-2,3-DIHYDRO-1H-INDEN-1-ONE]","green rosy metallic, green leathery, fatty floral"
16,"CCOc1ccc2c(c1)C(=O)C(C)C2 (centres unmarked) [Example 17, 6-ethoxy-2-methyl-2,3-dihydro-1H-inden-1-one]","green, waxy fruity, rosy"
17,"CCc1ccc2c(c1)C(=O)C(C)C2 (centres unmarked) [Example 14, 6-ethyl-2-methyl-2,3-dihydro-1H-inden-1-one]","green minty floral, carvone jasmine fruity"

row,SMILES,Odor description
1,"CC1CC(=O)c2cc(C(C)(C)C)ccc21 (centres unmarked) [Example 10, 6-(tert-butyl)-3-methyl-2,3-dihydro-1H-inden-1-one]","fruity, floral"
2,"CC1Cc2cc(C3CC3)ccc2C1=O (centres unmarked) [5-cyclopropyl-2-methyl-2,3-dihydro-1H-inden-1-one, reference compound]","green, creamy, lactonic"
3,"CC(C)Oc1ccc2c(c1)C(=O)C(C)C2 (centres unmarked) [Example 18, 6-isopropoxy-2-methyl-2,3-dihydro-1H-inden-1-one]","green rosy fatty floral, slightly fatty fruity, metallic rosy"
4,"CCCCc1ccc2c(c1)C(=O)C(C)C2 (centres unmarked) [Example 23, 6-butyl-2-methyl-2,3-dihydro-1H-inden-1-one]","green fatty floral: rosy, peach, green rubbery slightly leathery isobutyl salicylate"
5,"CC1Cc2ccc(C(C)C)cc2C1=O (centres unmarked) [Example 4, 6-isopropyl-2-methyl-2,3-dihydro-1H-inden-1-one]","green fatty, lactonic fruity, rosy metallic"
6,"C=C(C)Cc1ccc2c(c1)C(=O)C(C)C2 (centres unmarked) [Example 22, 2-methyl-6-(2-methylallyl)-2,3-dihydro-1H-inden-1-one]","fatty, fruity, green, floral, cinnamic cinnamate like"
7,"CC(C)Cc1ccc2c(c1)C(=O)C(C)C2 (centres unmarked) [Example 1, 6-isobutyl-2-methyl-2,3-dihydro-1H-inden-1-one]","floral fruity fatty, creamy lactonic like, nectaryl-like, rosy, rose petal, green rose oxide-like"
8,"CCCc1ccc2c(c1)C(=O)C(C)C2C (centres unmarked) [Example 6, 2,3-dimethyl-6-propyl-2,3-dihydro-1H-inden-1-one]","green fatty oily, fatty fruity lactonic, metallic rosy"
9,"CCCc1ccc2c(c1)CC(C)C2=O (centres unmarked) [2-methyl-5-propyl-2,3-dihydro-1H-inden-1-one, reference compound]","green, waxy, fatty"
10,"CCCc1ccc2c(c1)C(=O)C(C)C2 (centres unmarked) [Example 7, 2-methyl-6-propyl-2,3-dihydro-1H-inden-1-one]","green, floral, fatty, rosy cinnamic"
11,"C=C(C)Cc1cccc2c1C(=O)C(C)C2 (centres unmarked) [2-methyl-7-(2-methylallyl)-2,3-dihydro-1H-inden-1-one, reference compound]","green, wax, slightly minty"
12,"CC1Cc2c(cccc2C2CC2)C1=O (centres unmarked) [Comparison Example 7, 4-cyclopropyl-2-methyl-2,3-dihydro-1H-inden-1-one, reference compound]",weak floral
13,"C=C(C)Cc1cccc2c1CC(C)C2=O (centres unmarked) [Comparison Example 5, 2-methyl-4-(2-methylallyl)-2,3-dihydro-1H-inden-1-one, reference compound]","fruity floral metallic, myradyl-like"
14,"C=C(C)Cc1ccc2c(c1)CC(C)C2=O (centres unmarked) [2-methyl-5-(2-methylallyl)-2,3-dihydro-1H-inden-1-one, reference compound]","fatty fruity citrus floral, “citral myraldyl”-like, soapy"
15,"CC(C)CCc1ccc2c(c1)C(=O)C(C)C2 (centres unmarked) [Example 16, 6-isopentyl-2-methyl-2,3-dihydro-1H-inden-1-one]","green rosy, fatty lactonic, rosy powdery, cinnamate like"
16,"CC(C)Cc1ccc2c(c1)C(=O)C(C)(C)C2 [Example 9, 6-isobutyl-2,2-dimethyl-2,3-dihydro-1H-inden-1-one]","floral fatty, fruity, green, rubbery, muguet"

# Same assay, conditions: odor of the isomeric mixture unless otherwise indicated; listed as 6-(sec-butyl)methyl-2,3-dihydro-1H-inden-1-one
row,SMILES,Odor description
1,"CCC(C)c1ccc2c(c1)C(=O)C(C)C2 (centres unmarked) [Example 15, 6-(SEC-BUTYL)-2-METHYL-2,3-DIHYDRO-1H-INDEN-1-ONE]","very powerful ingredient with strong green rosy metallic and green leathery rubbery facets, and an overall fatty fruity floral character"

# Same assay, conditions: odor of the isomeric mixture unless otherwise indicated; listed as 6-isobutyl-2-methyl-2,3-dihydro-1H-inden-1-one
row,SMILES,Odor description
1,"CC(C)Cc1ccc2c(c1)C(=O)C(C)C2 (centres unmarked) [Example 1, 6-isobutyl-2-methyl-2,3-dihydro-1H-inden-1-one]","very powerful, floral fruity fatty, with creamy lactonic nectaryl like facet, and a rosy floral character with rose petal like and green rose oxide like facets"

# Assay: Rosy fragrance composition for fine perfumery: olfactory effect of adding the compound, compared to the accord with DPG instead
# Conditions: 10 parts per 1000 in the accord; assessed at 10 weight % in alcohol; compared to accord with DPG instead
# Text: EXAMPLE 25: ROSY FRAGRANCE COMPOSITION FOR FINE PERFUMERY
# This natural rose, spicy (clove) fresh light and delicate accord with slightly fruity (apple) facets is best to be assessed at 10 weight % in alcohol (85). […] This accord above is, e.g., suitable for fragrancing a softener.
row,SMILES,olfactory effect of addition to the rosy accord
1,"CC(C)Cc1ccc2c(c1)C(=O)C(C)C2 (centres unmarked) [Example 1, 6-isobutyl-2-methyl-2,3-dihydro-1H-inden-1-one]","much more impact accord, and the character is now fruity peach creamy, with a rose floral freshness"

# Same assay, conditions: 10 parts per 1000 in the accord; compared to accord wherein the compound is replaced by DPG
row,SMILES,long-lastingness of the accord
1,"CC(C)Cc1ccc2c(c1)C(=O)C(C)C2 (centres unmarked) [Example 1, 6-isobutyl-2-methyl-2,3-dihydro-1H-inden-1-one]",more long lasting
